Laboratory results taken from PubChem BioAssay AID1794845 (National Center for Advancing Translational Sciences (NCATS), 2023).
Hit rate of the full screen: of about 6,900 compounds, fewer than 10 were called active. The call rests on the fitted dose curve; in most records, active means well fitted curve in the direction sought with a large enough effect; inconclusive means small, poorly fitted or top-dose-only effect, or another doubt; inactive means no such curve, though single readings can be large or run the other way. The list shows a part of the results.

Protein sequences, listed by entry. Tags and fused reporters are not part of them. Lines headed by an entry give the natural chain unless they say otherwise; changes in a name come on top.
UniProt C7C422: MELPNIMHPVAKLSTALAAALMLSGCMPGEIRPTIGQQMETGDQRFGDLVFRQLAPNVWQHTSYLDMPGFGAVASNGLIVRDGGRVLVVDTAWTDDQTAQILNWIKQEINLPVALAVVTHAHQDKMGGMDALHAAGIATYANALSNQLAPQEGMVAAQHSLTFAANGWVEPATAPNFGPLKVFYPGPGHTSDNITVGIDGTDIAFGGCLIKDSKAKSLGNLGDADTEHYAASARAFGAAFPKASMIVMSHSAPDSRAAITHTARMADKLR

target: Metallo-beta-lactamase type 2 (Klebsiella pneumoniae) (UniProt C7C422); assay: qHTS to identify inhibitors of the New Delhi Metallo-beta-lactamase (NDM): primary screen against the NCATS Gemini Collection; details: NDM-1 enzyme, meropenem hydrolysis, absorbance 300 nm; at 38.4 µM (top of the series) unless noted; further: % of control where 0% means no effect
Method in brief: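 Meropenem hydrolysis (50 uM final) by 2 nM NDM-1 read as 300 nm absorbance after 30 min, following >30 min compound–enzyme preincubation in HEPES pH 7.0 with 1 uM ZnSO4 and 0.01% Tween20.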

Activity % (negative = inhibition), inactive:
O=C(c1ccnc(-c2ccncc2)c1)N1CCCC1 -0.667%
CC(=O)N1CCN(C(=O)c2cn3cc(-c4ccc(F)cc4)sc3n2)CC1 16.2%
COCCNC(=O)c1ccc(-c2ccc(N3CCCCC3)nc2)cc1 4.91%
CCC(C)C(=O)N1CCC2(CCc3nn(Cc4ccccc4)c(=O)n3CC2)CC1 (centres undefined) -3.02%
CN(C(=O)Cc1c[nH]c2ccccc12)C1CCc2nn(C)c(=O)n2CC1 (centres undefined) 30.5%
Cc1nn(CCC#N)c(C)c1[C@@H]1C=C[C@@H](NCc2ccc(C(C)C)cc2)C1 -0.892% [at 57.5 µM]
COc1ccc(Nc2cnc3ccc(-c4ccccc4)nn23)cc1 12.3% [at 57.5 µM]
CN1C[C@@H](NC(=O)NC2CCCCC2)C[C@H]1c1nc(Cc2ccccc2)no1 -1.03% [at 57.5 µM]
NC(=O)CO[C@@H]1CO[C@H]2[C@@H]1OC[C@@H]2NC(=O)NCc1ccccc1 1.19% [at 57.5 µM]
COc1ccc(NC(=O)[C@@H]2C[C@H](c3ccc(F)cc3)N(Cc3csc(C)n3)C2)cn1 5.33% [at 57.5 µM]
Cc1cc(CN(C)C2CCCc3ccccc32)no1 (centres undefined) 68.4% [at 57.5 µM]
CN1Cc2ncnc(N3CCOCC3)c2CN(c2cccnc2)C1=O 2.11% [at 57.5 µM]
O=C(c1ccccc1-c1ccccc1)N1CCCn2cncc2C1 -6.16%
CCCS(=O)(=O)NCC1CN(CC2CC2)CC12CCCCC2 (centres undefined) -9.24%
c1ccc(CC2=NOC3(CCN(Cc4ccccc4)C3)C2)cc1 (centres undefined) 5.44% [at 57.5 µM]
COc1ccc2c(c1)OCC(CNC(=O)c1ccc(-c3nnn(C)n3)cc1)C2 (centres undefined) 0.329%
O=C(c1nnc(CN2CCN(c3ccccn3)CC2)n1-c1cccnc1)N1CCC[C@@H]1c1cccc(F)c1 -8.91%
O=C(NCCc1cccs1)C1CCN(c2cc(C(F)(F)F)ncn2)CC1 1.3%
C=CCNc1nc(CC)nc2c1CCN(C(=O)c1cn(C)nc1C)CC2 15.5%
COc1ccc(C(=O)N[C@@H]2CN(c3ncccn3)C[C@H]2CN(C)C)cn1 4.93%
CC(=O)N1CCC(C2CCN(C(=O)c3nn(C)c4ccccc34)C2)CC1 (centres undefined) 14.6%
CC[C@@]1(O)CCN(C(=O)CCc2nc(-c3ccncc3)no2)C[C@H]1O 10.4%
Cc1noc([C@@H]2CN(C(=O)CCc3nc4ccccc4s3)C[C@H]2C(N)=O)n1 -2.27%
Cc1c(C(=O)N[C@H](c2cnn(C)c2)C2CC(O)C2)sc2nc[nH]c(=O)c12 (some centres undefined) 2.15%
COc1cccc(CN2CC(C(=O)NCc3cc4ccccc4[nH]3)CCC2=O)c1 (centres undefined) 3.35%
O=C(C1CC1)N1CCCC2(CN[S+](=O)([O-])c3cccnc3O2)C1 (centres undefined) 0.47%
COCC(=O)NC[C@H]1O[C@@H](CO)[C@@H](O)[C@H]1N1CCN(c2cccc(C(F)(F)F)c2)CC1 -1.52%
c1ccc(COc2ccc(CN3CCN(C4CCNC4)CC3)cc2)cc1 (centres undefined) 2.98%
CNC(=O)[C@@H](CC(C)C)N1CCC[C@H]1C(=O)N[C@@H](CO)CC(C)C 3.21% [at 57.5 µM]
CCO[C@H]1CN(C2CCN(CCc3ccccc3)CC2)C[C@@H]1O 13.8%
O=C([C@@H]1CNC[C@H](C(=O)N2CCC(c3ccncn3)CC2)C1)N1CCCC1 0.848%
O=C1NCc2ccccc2CC12CCN(Cc1ccc(F)cc1)CC2 17.6%
COc1ccccc1CCN1CCCC(CN(C)C(=O)Nc2ccccc2)C1 (centres undefined) -8.54%
CC(C)c1ccc(-n2cc(CN3CCN(C(=O)N(C)C)CC3)cn2)cc1 9.6%
CCCn1cc(C(=O)N2CC(=O)N(c3cccc(C)c3)CC2C)c(C)n1 (centres undefined) 2.88%
Cn1nccc1C(=O)NC1CCCN(c2cc(N3CCCC3)ncn2)C1 (centres undefined) 44.8%
C=CCOc1ccc(-c2nnc(CCC(=O)NCCOc3ccccc3)c(=O)[nH]2)cc1 16.2%
COCCS(=O)(=O)c1ncc(CN(C)C(C)c2ccon2)n1Cc1ccccc1 (centres undefined) -4.26%
O=C(c1ccc(C(F)(F)F)cc1)N1CCC2(COc3ccncc3[S+](=O)([O-])N2)C1 (centres undefined) 0.0293%
CCOc1ccccc1CN1C[C@@H](CO)[C@H](NC(=O)c2cccnc2)C1 -2.77%
Cc1nn(CC(=O)N2CCC3(CCCN(C)CC3)CC2)c(=O)c2ccccc12 -0.775%
CC(C(=O)NCCc1ccccn1)C1CCOCC1 (centres undefined) 8.17%
CC(=O)NCC(=O)N1c2ccccc2CC1c1nc(C(C)C)no1 (centres undefined) -22.3%
CC(C)(C)NC(=O)N1CCCC(c2nc(CCOCC3CC3)no2)C1 (centres undefined) -0.186%
O=C(c1nc(-c2ccc(Cl)cc2Cl)c2cnccn12)N1CCOCC1 -3.76%
COC(=O)COc1ccc(CC2C(=O)NCCc3ccccc3OCC(=O)N2C)cc1 (centres undefined) -1.66%
Cc1ccc(NC2=N[C@H]3[C@@H](O)[C@H](O)C[C@H](C(=O)NCc4cccnc4)[C@H]3S2)cc1 6.31% [at 57.5 µM]
COc1cccc(CN2CCCC(O)(CNC3CCCCCCC3)C2=O)c1 (centres undefined) 6.63%
CC(C)c1cc(C(=O)N2CC[C@H](CO)[C@H](O)C2)cs1 6.71%
Cc1cc(C(=O)NC2CC(C)(C)Cc3nc(N4CCOCC4)ncc32)nn1C (centres undefined) 0.957%
CC(C)CCCC1CN(C(=O)CN2CCCC2=O)CCO1 (centres undefined) 3.05%
Cc1noc([C@H]2CCN(S(C)(=O)=O)C[C@H]2NC(=O)C2CC2)n1 -0.74%
O=C1CC2(CCN(CC3CCOCC3)C2)Nc2ccccc2N1 (centres undefined) 0.0357%
Fc1cc(F)cc(Cc2nc3nccc(-c4cccnc4)n3n2)c1 5.04%

Sorted by formula weight (falling): part of the list above
Activity % (negative = inhibition), inactive:
COCCS(=O)(=O)c1ncc(CN(C)C(C)c2ccon2)n1Cc1ccccc1 (centres undefined) -4.26%
Cc1nn(CC(=O)N2CCC3(CCCN(C)CC3)CC2)c(=O)c2ccccc12 -0.775%
NC(=O)CO[C@@H]1CO[C@H]2[C@@H]1OC[C@@H]2NC(=O)NCc1ccccc1 1.19% [at 57.5 µM]
